The values that follow come from PMC11073986.

Protein sequences, listed by entry. Tags and fused reporters are not part of them.
UniProt Q969R5: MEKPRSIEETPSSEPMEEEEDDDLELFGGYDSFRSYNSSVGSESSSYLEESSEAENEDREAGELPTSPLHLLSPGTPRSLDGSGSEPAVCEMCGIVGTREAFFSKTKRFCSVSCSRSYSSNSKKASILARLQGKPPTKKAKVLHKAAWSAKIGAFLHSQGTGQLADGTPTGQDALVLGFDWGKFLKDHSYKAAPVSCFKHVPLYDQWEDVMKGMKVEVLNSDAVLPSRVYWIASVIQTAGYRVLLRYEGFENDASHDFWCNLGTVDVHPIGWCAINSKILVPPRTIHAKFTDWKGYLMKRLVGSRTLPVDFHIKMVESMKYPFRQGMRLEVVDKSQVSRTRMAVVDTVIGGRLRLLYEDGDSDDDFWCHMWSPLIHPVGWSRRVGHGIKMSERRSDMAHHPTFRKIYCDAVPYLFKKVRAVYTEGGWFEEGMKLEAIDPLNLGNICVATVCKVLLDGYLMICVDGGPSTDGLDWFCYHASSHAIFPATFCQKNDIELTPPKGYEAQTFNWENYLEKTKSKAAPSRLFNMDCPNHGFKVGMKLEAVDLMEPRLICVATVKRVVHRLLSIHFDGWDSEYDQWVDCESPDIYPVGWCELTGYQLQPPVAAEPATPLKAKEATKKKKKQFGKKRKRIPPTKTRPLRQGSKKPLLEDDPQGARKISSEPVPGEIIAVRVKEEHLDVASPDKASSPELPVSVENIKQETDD

This assay addresses T1, MGA p.C623* (Flag-tagged truncation of Max-gene associated protein) (human) (UniProt Q8IWI9).
T1 sequence: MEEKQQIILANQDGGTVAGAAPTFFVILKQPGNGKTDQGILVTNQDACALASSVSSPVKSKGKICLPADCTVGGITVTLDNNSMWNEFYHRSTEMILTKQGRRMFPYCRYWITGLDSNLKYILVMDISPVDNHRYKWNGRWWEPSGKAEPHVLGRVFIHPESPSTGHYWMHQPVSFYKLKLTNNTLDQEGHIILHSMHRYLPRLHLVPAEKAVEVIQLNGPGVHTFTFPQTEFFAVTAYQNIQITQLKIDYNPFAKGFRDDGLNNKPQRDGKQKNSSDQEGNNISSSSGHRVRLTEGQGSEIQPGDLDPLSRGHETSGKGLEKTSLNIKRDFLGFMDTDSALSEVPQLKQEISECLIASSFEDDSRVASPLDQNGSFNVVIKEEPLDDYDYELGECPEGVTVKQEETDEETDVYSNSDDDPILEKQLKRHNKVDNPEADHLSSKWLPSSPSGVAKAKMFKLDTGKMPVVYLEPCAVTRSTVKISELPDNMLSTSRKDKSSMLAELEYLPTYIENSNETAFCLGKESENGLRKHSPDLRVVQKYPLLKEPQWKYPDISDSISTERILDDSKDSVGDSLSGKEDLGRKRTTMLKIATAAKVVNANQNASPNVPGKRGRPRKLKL
Description: co-IP; flag-tagged MGA constructs co-expressed with HA-tagged MAX in HEK293T cells; immunoprecipitation followed by western blot probed for components of the ncPRC1.6 complex.

These are yes or no findings as the source states them, for the method shown. Binding seen in cells or lysates may run through a third protein. Sequences can lack the tags named with a protein.

In the case of L3MBTL2 (from UniProt Q969R5 1-705), the binding result is reported as “no binding”.

B1: PCGF6 (protein, UniProt Q9BYE7 1-350)
chain: MEGVAVVTAGSVGAAKTEGAAALPPPPPVSPPALTPAPAAGEEGPAPLSETGAPGCSGSRPPELEPERSLGRFRGRFEDEDEELEEEEELEEEEEEEEEDMSHFSLRLEGGRQDSEDEEERLINLSELTPYILCSICKGYLIDATTITECLHTFCKSCIVRHFYYSNRCPKCNIVVHQTQPLYNIRLDRQLQDIVYKLVINLEEREKKQMHDFYKERGLEVPKPAVPQPVPSSKGRSKKVLESVFRIPPELDMSLLLEFIGANEGTGHFKPLEKKFVRVSGEATIGHVEKFLRRKMGLDPACQVDIICGDHLLEQYQTLREIRRAIGDAAMQDGLLVLHYGLVVSPLKIT
Consider B1, for which the binding result was “no binding”.
